The record followed here is patent US20050196806A1 (The Government of the USA, as represented by the Secretary, …, priority 1996, published 2005).

A short description of the data set: general procedure: Fmoc solid-phase peptide synthesis. Conditions: whole synthesis, scale 25 μmole.

No end group written: not given here.

Take “FLTPKKLQCVDLHVISNDVCAQVHPQKVTK (cysteines drawn unpaired)”: the crude mass entry is on record as “approximately 64 mg”.
